No constants are given. Whether binding was seen depends on the method and setting. Binding seen in cells or lysates may run through a third protein. Some entries that bind do so weakly or less than the wild type. Where a sequence is shown, tags or fusion partners need not be part of it.
Target: T1, PAG1-FLAG (Arabidopsis thaliana) (UniProt O23715)
T1 sequence: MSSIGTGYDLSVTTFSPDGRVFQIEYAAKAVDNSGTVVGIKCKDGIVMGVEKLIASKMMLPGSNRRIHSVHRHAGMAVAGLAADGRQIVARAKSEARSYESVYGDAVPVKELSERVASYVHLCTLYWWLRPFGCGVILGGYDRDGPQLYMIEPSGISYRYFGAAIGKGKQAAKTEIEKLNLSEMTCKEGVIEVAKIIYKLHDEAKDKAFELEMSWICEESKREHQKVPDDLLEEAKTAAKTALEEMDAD
Assay: co-IP; PAG1-FLAG on anti-FLAG M2 resin from seedling lysate, 12-h time point, eluates immunoblotted; eluates made with and without 20 mM ATP, the text does not tell which for this result; less from NaCl-treated seedlings

Amino acid sequences for entries named in this document (tags omitted).
UniProt F4JC97: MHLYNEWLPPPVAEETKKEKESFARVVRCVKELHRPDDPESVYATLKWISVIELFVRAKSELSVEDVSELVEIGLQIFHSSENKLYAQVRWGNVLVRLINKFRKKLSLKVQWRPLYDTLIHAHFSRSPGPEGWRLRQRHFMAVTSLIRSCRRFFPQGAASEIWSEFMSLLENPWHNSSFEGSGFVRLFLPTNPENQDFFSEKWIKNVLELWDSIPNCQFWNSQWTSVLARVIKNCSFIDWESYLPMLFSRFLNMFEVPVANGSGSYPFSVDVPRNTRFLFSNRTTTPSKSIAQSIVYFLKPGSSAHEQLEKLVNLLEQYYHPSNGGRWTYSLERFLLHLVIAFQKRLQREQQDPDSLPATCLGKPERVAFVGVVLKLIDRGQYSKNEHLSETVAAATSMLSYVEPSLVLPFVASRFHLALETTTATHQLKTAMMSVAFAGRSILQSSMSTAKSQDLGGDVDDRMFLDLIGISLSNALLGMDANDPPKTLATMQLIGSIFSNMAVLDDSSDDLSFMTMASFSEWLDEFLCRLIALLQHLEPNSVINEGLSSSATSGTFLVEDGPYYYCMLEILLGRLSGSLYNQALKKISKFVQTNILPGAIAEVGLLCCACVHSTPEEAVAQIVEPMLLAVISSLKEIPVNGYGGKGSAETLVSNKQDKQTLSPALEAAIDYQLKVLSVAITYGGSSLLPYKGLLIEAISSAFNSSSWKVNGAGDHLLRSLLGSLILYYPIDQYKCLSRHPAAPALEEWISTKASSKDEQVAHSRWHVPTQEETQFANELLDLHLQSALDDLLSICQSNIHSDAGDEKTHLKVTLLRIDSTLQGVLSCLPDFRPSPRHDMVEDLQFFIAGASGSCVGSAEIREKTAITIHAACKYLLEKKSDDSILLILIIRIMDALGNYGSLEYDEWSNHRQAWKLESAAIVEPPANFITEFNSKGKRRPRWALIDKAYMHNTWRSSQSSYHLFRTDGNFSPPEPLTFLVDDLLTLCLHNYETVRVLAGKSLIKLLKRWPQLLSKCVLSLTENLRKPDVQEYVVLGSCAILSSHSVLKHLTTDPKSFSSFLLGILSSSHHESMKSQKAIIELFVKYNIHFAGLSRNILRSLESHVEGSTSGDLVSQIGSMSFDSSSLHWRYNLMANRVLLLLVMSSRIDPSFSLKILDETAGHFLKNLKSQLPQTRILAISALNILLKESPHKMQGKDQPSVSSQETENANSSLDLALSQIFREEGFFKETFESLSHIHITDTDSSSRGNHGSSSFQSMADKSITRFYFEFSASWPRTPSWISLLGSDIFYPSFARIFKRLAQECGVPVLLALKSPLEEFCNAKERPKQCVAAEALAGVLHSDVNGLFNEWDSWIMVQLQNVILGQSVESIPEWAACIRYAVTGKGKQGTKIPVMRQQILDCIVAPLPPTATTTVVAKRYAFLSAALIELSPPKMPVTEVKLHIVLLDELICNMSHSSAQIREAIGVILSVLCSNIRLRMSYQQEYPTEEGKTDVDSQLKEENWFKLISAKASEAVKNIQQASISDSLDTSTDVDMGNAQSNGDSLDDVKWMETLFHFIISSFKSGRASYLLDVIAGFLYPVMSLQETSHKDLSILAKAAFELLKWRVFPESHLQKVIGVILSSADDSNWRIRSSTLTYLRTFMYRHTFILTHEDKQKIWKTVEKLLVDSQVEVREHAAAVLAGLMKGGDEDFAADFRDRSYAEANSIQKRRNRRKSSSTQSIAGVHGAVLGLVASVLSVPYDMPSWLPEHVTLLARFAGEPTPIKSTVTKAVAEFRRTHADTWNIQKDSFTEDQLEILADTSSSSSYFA

Question: With PA200 (from UniProt F4JC97 1-1811) as the substance, how does the binding read?
Answer: binds

— paper PMC8543921
